Experimental data taken from patent US20160046678A1 (ZYNGENIA, published 2016).
No constants are given. Whether binding was seen depends on the method and setting. Some entries that bind do so weakly or less than the wild type.

These binders were tested against EGFR (UniProt P00533) (assay: peptide screen, Example 48).

Row | Binder | binding
1 | LTYVCWWNMWGYECLPYE [EGA813] | binds
2 | LPDGCWWAQWGRECLLKP [EGA814] | binds
3 | LPAPCYWTTWGKECFIVP [EGA815] | binds
4 | LIAPCYWTIWGKECFILD [EGA816] | binds
5 | HPDNCWWAVWGRECLLLP [EGA817] | binds
6 | LSDPCYWTTWGKECFLLR [EGA818] | binds
7 | LTAPCYWTTWGKECLLLR [EGA819] | binds
8 | LAEGCIWTTWGRECFLLP [EGA820] | binds
9 | LPDGCYWTVWGRECFLPP [EGA821] | binds
10 | LRDPCWWAVWGRECILLP [EGA822] | binds
11 | QSPGCWWAVWGVECILLP [EGA823] | binds
12 | IHEGCWWSSWGKECLLLP [EGA824] | binds
13 | LPEGCWWATWGRECLLEP [EGA825] | binds
14 | LPAGCYWANWGKECFLVP [EGA826] | binds
15 | LTDPCYWTTWGKECLLHR [EGA828] | binds
16 | LPEGCWWAPWGKECLLSP [EGA830] | binds
17 | LPAPCYWTTWGKECLMPR [EGA831] | binds
18 | LPDGCYWSMWGRECFLVP [EGA832] | binds
19 | VPQGCYWATWGRECYLLP [EGA833] | binds
20 | LPDSCWWSTWGRECILLP [EGA834] | binds
21 | LPAPCYWTTWGKECLLQH [EGA835] | binds
22 | LQEGCFWAVWGKECILLP [EGA836] | binds
23 | LNEHCYWALWGKECFLPR [EGA837] | binds
24 | LPEGCWWSPWGRECLLLP [EGA838] | binds

Row | Binder | binding
25 | LPEGCFWTVWGKECLLMP [EGA840] | binds
26 | LPDGCYWTTWGKECFMPR [EGA841] | binds
27 | LPEGCWWSPWGKECLLMP [EGA842] | binds
28 | LTPPCYWTIWGKECFMRQ [EGA843] | binds
29 | LPEGCYWSVWGKECLLES [EGA844] | binds
30 | LTDQCYWATWGRECILLR [EGA846] | binds
31 | FPDGCYWAIWGRECLLQP [EGA847] | binds
32 | LSGGCYWTTWGRECILLP [EGA848] | binds
33 | LSSPCYWTTWGKECFIIR [EGA849] | binds
34 | FPEGCWWALWGKECFLQP [EGA850] | binds
35 | LPDGCWWSVWGRECLMLP [EGA851] | binds
36 | LPEDCWWAIWGRECLLTP [EGA852] | binds
37 | LPEPCYWTTWGKECFMIH [EGA853] | binds
38 | LPQGCYWAVWGRECLLLP [EGA854] | binds
39 | LPAGCWWSLWGKECYLLP [EGA855] | binds
40 | LPEECWWAIWGRECHLLP [EGA856] | binds
41 | LPAGCWWSVWGRECLLMP [EGA857] | binds
42 | MPEGCFWAIWGRECFLLP [EGA858] | binds
43 | LPDPCWWAPWGRECVLMP [EGA859] | binds
44 | IPDGCYWAIWGRECFLLP [EGA860] | binds
45 | LPAPCYWTTWGKECFLLR [EGA861] | binds
46 | LTDSCYWTTWGRECFLIP [EGA862] | binds
47 | IHDPCYWTVWGRECLLLP [EGA863] | binds
48 | LPEGCWWSAWGRECILLQ [EGA864] | binds

Row | Binder | binding
49 | LMGDCWWTVWGKECLLQP [EGA865] | binds
50 | VPDSCWWSQWGRECLLPP [EGA868] | binds
51 | LPEGCWWSVWGKECLMLP [EGA869] | binds
52 | LATPCYWTTWGKECLIPR [EGA870] | binds
53 | LLLGCSWHFWVYECLPPP [EGA871] | binds
54 | INPPCYWTTWGKECFLHR [EGA872] | binds
55 | LPEGCWWTQWGKECHLAP [EGA873] | binds
56 | FPAGCYWAHWGRECLLLP [EGA874] | binds
57 | LPEGCWWSIWGKECLLLP [EGA875] | binds
58 | LPEGCYWAIWGKECHMTP [EGA876] | binds
59 | IPEGCWWQPWALECFLLP [EGA878] | binds
60 | IAEGCWWSIWGKECFLLP [EGA879] | binds
61 | LPEPCYWTTWGKECHLPN [EGA880] | binds
62 | LPPRCLWNPWGPECFLIH [EGA881] | binds
63 | LTAPCWWTSWGRECYLFG [EGA882] | binds
64 | RPDSCYWTTWGRECLWPR [EGA883] | binds
65 | LPERCWWAIWGRECILLP [EGA884] | binds
66 | ISQGCWWSKWGRECLLPP [EGA885] | binds
67 | IPHGCWWAIWGRECLLLP [EGA886] | binds
68 | YPEHCWWFPSDWICTLMT [EGA888] | binds
69 | YAEHCWRFPSDWICTLMT [EGA889] | binds
70 | YADHCRLFPNDWICTLIT [EGA890] | binds
